The experiment deals with death receptor (DR)5 (human (endogenous in L-O2)), O14763. The experiment in a line: co-IP; DR5 immunoprecipitated (DISC isolation) from whole-cell extracts of L-O2 and L-O2-HBx cells 15 min after TRAIL (30 ng/ml), also L-O2-HBx cells transfected with the A20 expression vector or control vector; IP buffer 1% Nonidet P-40, 50 mM Tris-HCl pH 7.4, 50 mM EDTA, 150 mM NaCl; protein A/G plus agarose beads and 5 ug antibody overnight at 4 °C; partners detected by western blot. Particulars: remark: other sources report otherwise. For orientation: In western blotting, separated proteins are transferred to a membrane and probed.

No constants are given. Whether binding was seen depends on the method and setting. In cells and extracts the contact can be indirect. Some binding calls cover weakened binding; strength is not graded here.

B1: caspase-8, Q14790 1-479 (enzyme)
chain: MDFSRNLYDIGEQLDSEDLASLKFLSLDYIPQRKQEPIKDALMLFQRLQEKRMLEESNLSFLKELLFRINRLDLLITYLNTRKEEMERELQTPGRAQISAYRVMLYQISEEVSRSELRSFKFLLQEEISKCKLDDDMNLLDIFIEMEKRVILGEGKLDILKRVCAQINKSLLKIINDYEEFSKERSSSLEGSPDEFSNGEELCGVMTISDSPREQDSESQTLDKVYQMKSKPRGYCLIINNHNFAKAREKVPKLHSIRDRNGTHLDAGALTTTFEELHFEIKPHDDCTVEQIYEILKIYQLMDHSNMDCFICCILSHGDKGIIYGTDGQEAPIYELTSQFTGLKCPSLAGKPKVFFIQACQGDNYQKGIPVETDSEEQPYLEMDLSSPQTRYIPDEADFLLGMATVNNCVSYRNPAEGTWYIQSLCQSLRERCPRGDDILTILTEVNYEVSNKDDKKNMGKQMPQPTFTLRKKLVFPSD
With B1, the binding entry was “binds”.
